Measured values from the supplement of paper PMC12823440, “Inhibitors supercharge kinase turnover through native proteolytic circuits” (Nature, 2025).
Where a name gives a salt, the structure may show the parent alone. The list shows a part of the results. Hit calls seldom repeat between salt and free forms of one compound.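 Kinases, fused to nanoluciferase, were expressed in K562 cells; luminescence was measured every 4 h from 2 to 18 h as percent of control (DMSO = 100%, positive control = 0%). A time point is decreased if signal falls significantly (2 sigma). Hits were called by the authors by a rule that is not shown; the count of time points alone does not decide it.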

Chains of the proteins cited; added tags and fusions are not shown. Lines headed by an entry give the natural chain unless they say otherwise; changes in a name come on top.
UniProt O14965: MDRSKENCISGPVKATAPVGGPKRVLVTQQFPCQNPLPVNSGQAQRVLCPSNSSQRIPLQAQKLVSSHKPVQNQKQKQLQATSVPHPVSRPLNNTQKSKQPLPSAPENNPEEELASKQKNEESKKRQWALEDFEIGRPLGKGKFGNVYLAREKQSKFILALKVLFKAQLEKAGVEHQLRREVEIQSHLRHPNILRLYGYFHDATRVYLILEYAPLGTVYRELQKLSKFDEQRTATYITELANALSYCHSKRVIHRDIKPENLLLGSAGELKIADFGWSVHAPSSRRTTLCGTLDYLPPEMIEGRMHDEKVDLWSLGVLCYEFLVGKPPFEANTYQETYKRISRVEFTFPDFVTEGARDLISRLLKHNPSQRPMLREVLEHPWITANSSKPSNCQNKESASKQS
UniProt Q96GD4, whole entry: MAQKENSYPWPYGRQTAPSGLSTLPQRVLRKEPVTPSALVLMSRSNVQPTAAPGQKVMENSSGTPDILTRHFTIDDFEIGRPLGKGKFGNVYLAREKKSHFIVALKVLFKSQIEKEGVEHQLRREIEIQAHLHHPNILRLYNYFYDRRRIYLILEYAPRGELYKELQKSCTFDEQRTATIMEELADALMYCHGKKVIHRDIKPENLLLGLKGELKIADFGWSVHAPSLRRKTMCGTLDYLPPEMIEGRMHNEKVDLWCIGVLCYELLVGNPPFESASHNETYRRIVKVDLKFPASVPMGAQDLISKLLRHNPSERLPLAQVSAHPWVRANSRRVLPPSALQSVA

target: AURKA (UniProt O14965); test: kinase-Nluc reporter destabilization hit call (1 = scored as downregulated) (binary); higher = compound decreases kinase abundance; settings: K562; 2-18 h

Q: For `CCCCNc1nc(N)c2[nH]c(=O)n(Cc3ccc(C)nc3)c2n1` (10 µM), which “kinase-Nluc reporter destabilization hit call” value is on record?
A: The value was inactive: 0.

Q: For `N#CC(C#N)=Cc1ccc([N+](=O)[O-])c(O)c1` (10 µM), which “kinase-Nluc reporter destabilization hit call” value is on record?
A: Its value is inactive: 0.

Q: `O=c1[nH]c2ccccc2n1C1CCN(Cc2ccc(-c3[nH]c4cc5ncnc5cc4nc3-c3ccccc3)cc2)CC1` [AKT inhibitor VIII] (2.5 µM) was tested. Which “kinase-Nluc reporter destabilization hit call” value did it give?
A: The value was inactive: 0.

Q: For `CC(=O)Oc1ccc(/C=C/c2cc(OC(C)=O)cc(OC(C)=O)c2)cc1` [Triacetylresveratrol] (10 µM), which “kinase-Nluc reporter destabilization hit call” value is on record?
A: Its value is inactive: 0.

Q: Which “kinase-Nluc reporter destabilization hit call” value does the source give for `O=C1c2ccccc2C(=O)c2c1cccc2-c1cnn(C2CCNCC2)c1` [PDK4-IN-1 (hydrochloride)] (10 µM) here?
A: Its value is inactive: 0.

Q: With `CC1C(=O)OC2C(O)C34C5OC(=O)C3(OC3OC(=O)C(O)C34C(C(C)(C)C)C5O)C12O` (stereo unspecified) [Ginkgolide C] (10 µM) as the compound, how does the “kinase-Nluc reporter destabilization hit call” value read?
A: Its value is inactive: 0.

Q: How did the “kinase-Nluc reporter destabilization hit call” value turn out when `O=Cc1cn(Cc2ccc(Cl)cc2)c2ccccc12` [Oncrasin-1] (10 µM) was run?
A: The value was inactive: 0.

Q: Which “kinase-Nluc reporter destabilization hit call” value does the source give for `N#CC(C#N)=NNc1cccc(Cl)c1` (2.5 µM) here?
A: Its value is inactive: 0.

Q: Which “kinase-Nluc reporter destabilization hit call” value does the source give for `CC(C)=CC[C@@H](OC(=O)CC(C)(C)O)C1=CC(=O)c2c(O)ccc(O)c2C1=O` [β-Hydroxyisovalerylshikonin] (2.5 µM) here?
A: Its value is inactive: 0.

Q: For `O=c1ccc2cc(O[C@@H]3O[C@H](CO)[C@@H](O)[C@H](O)[C@H]3O)c(O)cc2o1` [Esculin] (10 µM), which “kinase-Nluc reporter destabilization hit call” value is on record?
A: The value was inactive: 0.

Q: How did the “kinase-Nluc reporter destabilization hit call” value turn out when `C[C@H]1CC[C@]2(NC1)O[C@H]1C[C@H]3[C@@H]4CC[C@H]5C[C@@H](O)CC[C@]5(C)[C@H]4CC[C@]3(C)[C@H]1[C@@H]2C` [Tomatidine] (2 µM) was run?
A: The value was inactive: 0.

Q: With `C/C(O)=C(\C#N)C(=O)Nc1cc(Br)ccc1Br` (10 µM) as the compound, how does the “kinase-Nluc reporter destabilization hit call” value read?
A: The value was inactive: 0.

Q: Which “kinase-Nluc reporter destabilization hit call” value does the source give for `COc1ccc2c(c[n+](C)c3c4cc5c(cc4ccc23)OCO5)c1OC` [Chelerythrine (chloride)] (10 µM) here?
A: Its value is inactive: 0.

Q: With `COc1ccc2c(c1)[nH]c1c(C)nccc12` [Harmine] (10 µM) as the compound, how does the “kinase-Nluc reporter destabilization hit call” value read?
A: The value was inactive: 0.

Q: Which “kinase-Nluc reporter destabilization hit call” value does the source give for `CCCCCCCCCCCCCCCCOC[C@H](COP(=O)([O-])OCC[N+](C)(C)C)OC(C)=O` (10 µM) here?
A: Its value is inactive: 0.

Q: With `O=C(O)c1sc2cc(Cl)ccc2c1Cl` (10 µM) as the compound, how does the “kinase-Nluc reporter destabilization hit call” value read?
A: Its value is inactive: 0.

Q: `C[S+]([O-])/C=C/CCN=C=S` (stereo unspecified) [Sulforaphene] (10 µM) was tested. Which “kinase-Nluc reporter destabilization hit call” value did it give?
A: Its value is inactive: 0.

Q: Which “kinase-Nluc reporter destabilization hit call” value does the source give for `Cn1cc(C2=C(c3cn(C4CCN(Cc5ccccn5)CC4)c4ccccc34)C(=O)NC2=O)c2ccccc21` [Enzastaurin] (10 µM) here?
A: Its value is inactive: 0.

Q: Which “kinase-Nluc reporter destabilization hit call” value does the source give for `CCN1CCN(C(=O)Cc2ccc(Nc3ncc(F)c(Nc4ccc(C(=O)Nc5ccccc5Cl)cc4)n3)cc2)CC1` (2.5 µM) here?
A: Its value is inactive: 0.

Q: How did the “kinase-Nluc reporter destabilization hit call” value turn out when `Cc1n[nH]cc1-c1cc2nc([C@@H]3CC4CCN3CC4)[nH]c(=O)c2s1` [Simurosertib] (2.5 µM) was run?
A: Its value is inactive: 0.

Q: For `O=C(N[C@@H](COc1ccc2[nH]c(=O)[nH]c2c1)c1ccccc1)c1cccn(Cc2ccc(F)c(F)c2)c1=O` (2.5 µM), which “kinase-Nluc reporter destabilization hit call” value is on record?
A: The value was inactive: 0.

Q: For `CCOC(=O)c1c(/C(C#N)=C\N)c2ccc(Cl)c(Cl)c2n1C` (10 µM), which “kinase-Nluc reporter destabilization hit call” value is on record?
A: The value was inactive: 0.

Q: Which “kinase-Nluc reporter destabilization hit call” value does the source give for `C[C@H](CCC(=O)O)C[C@H](C)C[C@H](C)C(=O)/C=C(\O)[C@H](C)C[C@H](C)C/C=C/[C@@H](C)[C@@H](O)[C@@H](C)[C@@H](O)C[C@@H]1CC[C@@](C)([C@H]2CC[C@@](C)([C@@H](C)O)O2)O1` [Ionomycin (calcium)] (2.5 µM) here?
A: The value was active: 1.

Q: For `CC(C)(C)c1cc(C=C(C#N)C#N)cc(Br)c1O` (2.5 µM), which “kinase-Nluc reporter destabilization hit call” value is on record?
A: Its value is inactive: 0.

Q: Which “kinase-Nluc reporter destabilization hit call” value does the source give for `C=CC(=O)N[C@H]1C=C(C)c2c(-c3cnc4ccccc4c3)c3c(N)ncnc3n2C1` (10 µM) here?
A: Its value is inactive: 0.

Q: `COC[C@H]1OC(=O)c2coc3c2[C@@]1(C)C1=C(C3=O)[C@@H]2CCC(=O)[C@@]2(C)C[C@H]1OC(C)=O` [Wortmannin] (2.5 µM) was tested. Which “kinase-Nluc reporter destabilization hit call” value did it give?
A: The value was active: 1.

Q: How did the “kinase-Nluc reporter destabilization hit call” value turn out when `CC(=O)c1c(O)c(C)c(O)c(Cc2c(O)c3c(c(C(=O)/C=C/c4ccccc4)c2O)OC(C)(C)C=C3)c1O` [Rottlerin] (2 µM) was run?
A: The value was inactive: 0.

Q: Which “kinase-Nluc reporter destabilization hit call” value does the source give for `NCCc1cn(S(=O)(=O)c2c(Cl)nc3sccn23)c2ccccc12` (10 µM) here?
A: The value was inactive: 0.

target: AURKB (UniProt Q96GD4); test: as above; settings: K562; 2-18 h

Q: With `CCCCNc1nc(N)c2[nH]c(=O)n(Cc3ccc(C)nc3)c2n1` (10 µM) as the compound, how does the “kinase-Nluc reporter destabilization hit call” value read?
A: Its value is inactive: 0.

Q: `N#CC(C#N)=Cc1ccc([N+](=O)[O-])c(O)c1` (10 µM) was tested. Which “kinase-Nluc reporter destabilization hit call” value did it give?
A: The value was inactive: 0.

Q: Which “kinase-Nluc reporter destabilization hit call” value does the source give for `O=c1[nH]c2ccccc2n1C1CCN(Cc2ccc(-c3[nH]c4cc5ncnc5cc4nc3-c3ccccc3)cc2)CC1` [AKT inhibitor VIII] (2.5 µM) here?
A: Its value is inactive: 0.

Q: For `CC(=O)Oc1ccc(/C=C/c2cc(OC(C)=O)cc(OC(C)=O)c2)cc1` [Triacetylresveratrol] (10 µM), which “kinase-Nluc reporter destabilization hit call” value is on record?
A: The value was inactive: 0.

Q: Which “kinase-Nluc reporter destabilization hit call” value does the source give for `O=C1c2ccccc2C(=O)c2c1cccc2-c1cnn(C2CCNCC2)c1` [PDK4-IN-1 (hydrochloride)] (10 µM) here?
A: Its value is inactive: 0.

Q: With `CC1C(=O)OC2C(O)C34C5OC(=O)C3(OC3OC(=O)C(O)C34C(C(C)(C)C)C5O)C12O` (stereo unspecified) [Ginkgolide C] (10 µM) as the compound, how does the “kinase-Nluc reporter destabilization hit call” value read?
A: The value was inactive: 0.

Q: Which “kinase-Nluc reporter destabilization hit call” value does the source give for `O=Cc1cn(Cc2ccc(Cl)cc2)c2ccccc12` [Oncrasin-1] (10 µM) here?
A: The value was inactive: 0.

Q: `N#CC(C#N)=NNc1cccc(Cl)c1` (2.5 µM) was tested. Which “kinase-Nluc reporter destabilization hit call” value did it give?
A: The value was inactive: 0.

Q: `CC(C)=CC[C@@H](OC(=O)CC(C)(C)O)C1=CC(=O)c2c(O)ccc(O)c2C1=O` [β-Hydroxyisovalerylshikonin] (2.5 µM) was tested. Which “kinase-Nluc reporter destabilization hit call” value did it give?
A: Its value is inactive: 0.

Q: How did the “kinase-Nluc reporter destabilization hit call” value turn out when `O=c1ccc2cc(O[C@@H]3O[C@H](CO)[C@@H](O)[C@H](O)[C@H]3O)c(O)cc2o1` [Esculin] (10 µM) was run?
A: The value was inactive: 0.

Q: How did the “kinase-Nluc reporter destabilization hit call” value turn out when `C[C@H]1CC[C@]2(NC1)O[C@H]1C[C@H]3[C@@H]4CC[C@H]5C[C@@H](O)CC[C@]5(C)[C@H]4CC[C@]3(C)[C@H]1[C@@H]2C` [Tomatidine] (2 µM) was run?
A: Its value is inactive: 0.

Q: `C/C(O)=C(\C#N)C(=O)Nc1cc(Br)ccc1Br` (10 µM) was tested. Which “kinase-Nluc reporter destabilization hit call” value did it give?
A: The value was inactive: 0.

Q: `COc1ccc2c(c[n+](C)c3c4cc5c(cc4ccc23)OCO5)c1OC` [Chelerythrine (chloride)] (10 µM) was tested. Which “kinase-Nluc reporter destabilization hit call” value did it give?
A: Its value is inactive: 0.

Q: Which “kinase-Nluc reporter destabilization hit call” value does the source give for `COc1ccc2c(c1)[nH]c1c(C)nccc12` [Harmine] (10 µM) here?
A: Its value is inactive: 0.

Q: Which “kinase-Nluc reporter destabilization hit call” value does the source give for `CCCCCCCCCCCCCCCCOC[C@H](COP(=O)([O-])OCC[N+](C)(C)C)OC(C)=O` (10 µM) here?
A: The value was inactive: 0.

Q: How did the “kinase-Nluc reporter destabilization hit call” value turn out when `O=C(O)c1sc2cc(Cl)ccc2c1Cl` (10 µM) was run?
A: Its value is inactive: 0.

Q: With `C[S+]([O-])/C=C/CCN=C=S` (stereo unspecified) [Sulforaphene] (10 µM) as the compound, how does the “kinase-Nluc reporter destabilization hit call” value read?
A: Its value is inactive: 0.

Q: Which “kinase-Nluc reporter destabilization hit call” value does the source give for `Cn1cc(C2=C(c3cn(C4CCN(Cc5ccccn5)CC4)c4ccccc34)C(=O)NC2=O)c2ccccc21` [Enzastaurin] (10 µM) here?
A: The value was inactive: 0.

Q: For `CCN1CCN(C(=O)Cc2ccc(Nc3ncc(F)c(Nc4ccc(C(=O)Nc5ccccc5Cl)cc4)n3)cc2)CC1` (2.5 µM), which “kinase-Nluc reporter destabilization hit call” value is on record?
A: The value was inactive: 0.

Q: With `Cc1n[nH]cc1-c1cc2nc([C@@H]3CC4CCN3CC4)[nH]c(=O)c2s1` [Simurosertib] (2.5 µM) as the compound, how does the “kinase-Nluc reporter destabilization hit call” value read?
A: Its value is inactive: 0.

Q: For `O=C(N[C@@H](COc1ccc2[nH]c(=O)[nH]c2c1)c1ccccc1)c1cccn(Cc2ccc(F)c(F)c2)c1=O` (2.5 µM), which “kinase-Nluc reporter destabilization hit call” value is on record?
A: The value was inactive: 0.

Q: With `CCOC(=O)c1c(/C(C#N)=C\N)c2ccc(Cl)c(Cl)c2n1C` (10 µM) as the compound, how does the “kinase-Nluc reporter destabilization hit call” value read?
A: Its value is inactive: 0.

Q: `C[C@H](CCC(=O)O)C[C@H](C)C[C@H](C)C(=O)/C=C(\O)[C@H](C)C[C@H](C)C/C=C/[C@@H](C)[C@@H](O)[C@@H](C)[C@@H](O)C[C@@H]1CC[C@@](C)([C@H]2CC[C@@](C)([C@@H](C)O)O2)O1` [Ionomycin (calcium)] (2.5 µM) was tested. Which “kinase-Nluc reporter destabilization hit call” value did it give?
A: The value was inactive: 0.

Q: How did the “kinase-Nluc reporter destabilization hit call” value turn out when `CC(C)(C)c1cc(C=C(C#N)C#N)cc(Br)c1O` (2.5 µM) was run?
A: Its value is inactive: 0.

Q: How did the “kinase-Nluc reporter destabilization hit call” value turn out when `C=CC(=O)N[C@H]1C=C(C)c2c(-c3cnc4ccccc4c3)c3c(N)ncnc3n2C1` (10 µM) was run?
A: The value was inactive: 0.

Q: With `COC[C@H]1OC(=O)c2coc3c2[C@@]1(C)C1=C(C3=O)[C@@H]2CCC(=O)[C@@]2(C)C[C@H]1OC(C)=O` [Wortmannin] (2.5 µM) as the compound, how does the “kinase-Nluc reporter destabilization hit call” value read?
A: The value was active: 1.

Q: `CC(=O)c1c(O)c(C)c(O)c(Cc2c(O)c3c(c(C(=O)/C=C/c4ccccc4)c2O)OC(C)(C)C=C3)c1O` [Rottlerin] (2 µM) was tested. Which “kinase-Nluc reporter destabilization hit call” value did it give?
A: Its value is inactive: 0.

Q: How did the “kinase-Nluc reporter destabilization hit call” value turn out when `NCCc1cn(S(=O)(=O)c2c(Cl)nc3sccn23)c2ccccc12` (10 µM) was run?
A: The value was inactive: 0.
